Data on two molecules can be found in patent US20170015718A1, “PRO-APOPTOTIC RAS AND RAF PEPTIDES” (UNIVERSITE PIERRE ET MARIE CURIE (PARIS 6), priority 2013, published 2017).

These are yes or no findings as the source states them, for the method shown. Some entries that bind do so weakly or less than the wild type.

This assay deals with K-Ras protein (purified; murine Ras protein) (murine) (UniProt P32883). The assay is described as follows: cellulose-bound overlapping dodecapeptides probed with purified protein, antibody, ECL.

In the case of MEHIQGAWKTISNGFGLK [Raf1 peptide …], the binding entry is on record as “binds”.

HEHKGKKARLDWNTDAAS [Raf2 peptide …]: the binding entry is “binds”.
